Some of these results come from one statement about several compounds together.
Legend:
Candida albicans = assay: Minimum Inhibitory Concentration, broth dilution (NCCLS M27-A); assay type: cell-based
Protocol: Of course, compounds having MICs on the low end of these ranges, or even lower, are preferred. […] Toxicity is less of a concern for typical administration, as is water solubility.
(§1) For each compound Minimum Inhibitory Concentrations (MIC) were determined as described in Reference Method for Broth Dilution Antifungal Susceptibility Testing of Yeasts; Approved Standard; NCCLS document M27-A (ISBN 1-56238-328-0); NCCLS, 940 West Valley Road, Suite 1400, Wayne, Pa. 19087, 1997. […] Ten microliter samples were removed from the corresponding wells and deposited onto blood agar plates. Plates were incubated at 35° C. for 48 hours. The highest compound dilution at which no colonies are apparent on the plate was considered the MFC. Maximum non-lethal dose (NLD) data were also obtained for each product by initially intravenously administering a single 16 mg/kg dose to each of 4 mice in several groups. After review of findings, higher or lower doses were administered and a maximum non-lethal dose was determined. Ed50 data were also obtained for each compound. Efficacy was evaluated in mice injected with C. albicans. Therapeutic efficacy was defined as a 2 log reduction in kidney cfu relative to mean vehicle control.

mice = assay: Maximum non-lethal dose, single intravenous dose in mice; assay type: in vivo
Protocol: as §1

SMILES | Micro. Data (DLM/CJ) MIC (Candida albicans; listed as Compound C1) | NLD (maximum non-lethal dose) (mice; listed as Compound C1) | Micro. Data (DLM/CJ) MIC (Candida albicans; listed as Compound C2) | NLD (maximum non-lethal dose) (mice; listed as Compound C2)
COC(=O)C1C2C[C@@H](OC3O[C@H](C)[C@@H](O)[C@H](NC[C@@]4(O)OC[C@@H](O)[C@H](O)[C@@H]4O)[C@@H]3O)/C=C/C=C/C=C/C=C/C=C/C=C/C=C/[C@H](C)[C@@H](O)[C@@H](C)[C@H](C)OC(=O)C[C@H](O)C[C@H](O)CC[C@@H](O)[C@H](O)C[C@H](O)C[C@](O)(C[C@@H]1O)O2 (stereo partly shown) [Compound C1, N-tagatopyranose-amphotericin B methyl ester] | higher MICs and NLDs than AME and extremely higher MICs and NLDs than AmB | higher MICs and NLDs than AME and extremely higher MICs and NLDs than AmB | – | –
COC(=O)C1C2C[C@@H](OC3O[C@H](C)[C@@H](O)[C@H](NC[C@@]4(O)OC[C@@H](O)[C@@H](OC5O[C@H](CO)[C@H](O)[C@H](O)[C@H]5O)[C@@H]4O)[C@@H]3O)/C=C/C=C/C=C/C=C/C=C/C=C/C=C/[C@H](C)[C@@H](O)[C@@H](C)[C@H](C)OC(=O)C[C@H](O)C[C@H](O)CC[C@@H](O)[C@H](O)C[C@H](O)C[C@](O)(C[C@@H]1O)O2 (stereo partly shown) [Compound C2] | – | – | higher MICs and NLDs than AME and extremely higher MICs and NLDs than AmB | higher MICs and NLDs than AME and extremely higher MICs and NLDs than AmB

— patent US6562796B2, “Derivatives of polyene macrolides and preparation and use thereof” (Micrologix Biotech Inc., priority 2000, dated 2003)
